Results of single-concentration screens

Protein sequences, listed by entry. Tags and fused reporters are not part of them. Residues count along the entry.
UniProt P9WNZ1, whole entry: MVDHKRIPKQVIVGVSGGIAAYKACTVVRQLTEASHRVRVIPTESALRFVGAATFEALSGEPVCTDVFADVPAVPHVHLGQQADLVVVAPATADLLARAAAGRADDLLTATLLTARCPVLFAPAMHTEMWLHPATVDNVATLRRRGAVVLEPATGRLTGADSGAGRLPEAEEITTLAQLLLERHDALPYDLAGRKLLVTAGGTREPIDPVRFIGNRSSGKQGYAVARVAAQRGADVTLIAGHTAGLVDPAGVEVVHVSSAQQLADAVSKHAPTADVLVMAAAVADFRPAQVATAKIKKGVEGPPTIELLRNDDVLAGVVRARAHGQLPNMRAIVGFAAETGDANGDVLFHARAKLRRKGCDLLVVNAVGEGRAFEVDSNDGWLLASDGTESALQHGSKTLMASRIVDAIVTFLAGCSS
UniProt Q8IDJ8, 1-583: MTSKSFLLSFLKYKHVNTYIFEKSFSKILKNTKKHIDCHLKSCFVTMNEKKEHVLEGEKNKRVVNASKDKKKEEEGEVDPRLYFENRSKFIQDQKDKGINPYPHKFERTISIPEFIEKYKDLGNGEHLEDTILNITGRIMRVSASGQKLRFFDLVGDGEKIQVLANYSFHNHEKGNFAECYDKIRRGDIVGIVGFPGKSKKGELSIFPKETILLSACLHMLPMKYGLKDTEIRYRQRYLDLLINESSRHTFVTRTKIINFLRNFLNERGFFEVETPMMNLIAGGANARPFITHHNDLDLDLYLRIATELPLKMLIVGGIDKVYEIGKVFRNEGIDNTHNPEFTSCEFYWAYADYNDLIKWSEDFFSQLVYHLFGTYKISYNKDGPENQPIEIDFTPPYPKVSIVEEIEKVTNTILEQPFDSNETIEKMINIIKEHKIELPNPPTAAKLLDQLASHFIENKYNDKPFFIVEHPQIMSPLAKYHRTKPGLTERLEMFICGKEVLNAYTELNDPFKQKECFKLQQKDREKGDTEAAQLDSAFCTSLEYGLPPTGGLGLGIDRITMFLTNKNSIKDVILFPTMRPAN
UniProt A4I591, 1-473: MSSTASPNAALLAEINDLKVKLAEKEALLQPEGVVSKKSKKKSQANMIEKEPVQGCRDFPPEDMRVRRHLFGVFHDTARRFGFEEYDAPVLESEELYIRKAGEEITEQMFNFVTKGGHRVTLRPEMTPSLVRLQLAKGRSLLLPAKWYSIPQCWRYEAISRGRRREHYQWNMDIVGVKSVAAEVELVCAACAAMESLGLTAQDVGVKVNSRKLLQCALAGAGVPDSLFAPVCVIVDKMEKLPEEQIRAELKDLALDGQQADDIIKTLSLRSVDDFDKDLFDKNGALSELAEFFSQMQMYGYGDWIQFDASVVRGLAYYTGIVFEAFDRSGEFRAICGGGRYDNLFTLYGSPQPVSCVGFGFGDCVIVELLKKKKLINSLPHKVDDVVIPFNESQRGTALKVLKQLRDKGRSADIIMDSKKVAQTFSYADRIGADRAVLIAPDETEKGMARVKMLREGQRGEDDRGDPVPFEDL

CoaBC: 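Coenzyme A biosynthesis protein CoaBC, Mycobacterium tuberculosis (UniProt P9WNZ1). Enzyme assay of CoaBC with a phosphate dye (Biomol Green) read at 650 nm. Tested at 30 µM. Direction is inferred from only a few compounds that gave an IC50; most scored high, so higher reads as stronger inhibition. Most strong results did not repeat in a second test. About 67,000 compounds were tested under these conditions; 0.06% (about 40) showed 50% or more at least once.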
PfKRS1: 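Enzyme assay of the cytosolic lysyl-tRNA synthetase in 384-well plates, read by luminescence. Target: Lysine-tRNA ligase, Plasmodium falciparum 3D7 (UniProt Q8IDJ8). Concentration: 30 µM. Direction is inferred from only a few compounds that gave an IC50; most scored high, so higher reads as stronger inhibition. Of about 69,000 compounds tested this way, about 49 (0.071%) reached 50% or more in at least one test.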
LiHisRS: 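Enzyme assay of histidyl-tRNA synthetase; the read-out is not stated. Target: Histidine-tRNA ligase, Leishmania infantum (UniProt A4I591). Compounds at 30 µM. Direction is inferred from retests: higher values go with stronger inhibition. The assay is labelled LdHisRS but filed under L. infantum. About 69,000 compounds were tested under these conditions; 0.6% (about 410) showed 50% or more at least once.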

Results are given as percent effect. How 0% and 100% were set is not recorded. Most values in the screen are low, and negative values occur. Compounds were drawn at random from those tested, without regard to their results. A dash means the value is not listed here; it may have been measured.

| # | structure | CoaBC | PfKRS1 | LiHisRS |
|---|---|---|---|---|
| 1 | `Cc1cnn(CCNCc2csc(C)n2)c1` | -4.464 | 3.226 | -4.854 |
| 2 | `Cc1c[nH]nc1C1CN(c2ncccn2)CCO1` (centres unmarked) | -10.29 | -0.2705 | 11.51 |
| 3 | `CCOC(C)C(=O)Nc1cc(S(=O)(=O)NC2CC2)ccc1F` (centres unmarked) | -2.903 | -0.3681 | 3.947 |
| 4 | `CNC(=O)C1CCCCN1C(=O)c1csc(-c2ccc(C)o2)n1` (centres unmarked) | -4.147 | -0.1137 | 6.667 |
| 5 | `CC(=O)N1CCC2(CC1)CN(C(=O)c1ccc3c(c1)OCCO3)C2` | 1.272 | 1.537 | 21.36 |
| 6 | `Cc1nc(N(C)C)cc(C2(C)CCNCC2)n1` | 0.2375 | 1.38 | 4.225 |
| 7 | `CC(C)(C)n1ncc2c(=O)[nH]c(N3CCN(CC(F)F)CC3)nc21` | 5.455 | 3.416 | 10.96 |
| 8 | `CCC1c2ccccc2CCN1C(=O)c1ccnc(C(=O)OC)c1` (centres unmarked) | -3.846 | 5.726 | 11.97 |
| 9 | `COc1cc(C)nc(N2CCN(C(=O)CN(C)C(C)C)CC2)n1` | 0.7673 | -2.148 | -3.67 |
| 10 | `CCC(C)NS(=O)(=O)Cc1cccc(NC(=O)C2=CCCC2)c1` (centres unmarked) | 3.512 | 1.915 | 8.219 |
| 11 | `CCOc1cc(C)nc(N2CCN(C(C)c3nc(C)no3)CC2)n1` (centres unmarked) | - | 0.0497 | 14.17 |
| 12 | `Cc1cc(NC(=O)NCC(c2ccccc2)N2CCOCC2)n(C)n1` (centres unmarked) | -1.754 | 0.6469 | 10.71 |
| 13 | `CC(C)(C)c1noc(CN2CCN(C(=O)c3ccco3)CC2)n1` | 1.463 | -2.474 | 3.2 |
| 14 | `CCOc1ccccc1CNC1CCCN(Cc2noc(C)n2)C1` (centres unmarked) | 2.362 | 0.684 | 13.56 |
| 15 | `CN1CCN(C[C@@H]2CN(C(=O)CCc3cn[nH]c3)C[C@@H]2CO)CC1` | 6.79 | 3.624 | 0 |
| 16 | `CN(Cc1cn2c(n1)CN(C(=O)CC1CC1)CC2)Cc1ccco1` | -0.5181 | -6.637 | 8.029 |
| 17 | `OC1(CNCCc2nc(Cc3ccccc3)no2)CNCCOC1` (centres unmarked) | -8.423 | 5.221 | 17.14 |
| 18 | `CCc1ccc(-c2c(C)c(-c3cnn(C)c3)nc(N)c2C#N)o1` | 8.411 | 13.21 | 19.74 |
| 19 | `Cc1ncsc1C(=O)N1CC[C@@]2(O)CCN(C(=O)N3CCCC3)C[C@H]2C1` | 5.409 | -0.3461 | 15.93 |
| 20 | `CCOC(=O)Cn1c(=O)nc2n1C(=O)N(c1ccccc1)C2` | -2.81 | 1.918 | 15.58 |
| 21 | `CCNC(=O)NC(=O)CN1CCC(c2c[nH]c3ccc(OC)cc23)CC1` | 8.487 | -2.327 | 16.13 |
| 22 | `Cn1cc(I)c(C(=O)NC2CCCC2)n1` | -1.04 | 0.9955 | 7.143 |
| 23 | `CC(=O)N1CCC(N[C@@H]2CC[C@@H]2NS(=O)(=O)c2cccnc2)CC1` | -2.893 | 0.3667 | 12 |
| 24 | `CC1(c2ccccc2)CCCN(Cc2cncn2C2CCCC2)C1` (centres unmarked) | - | 8.858 | 40 |
| 25 | `CC(=O)N1C[C@H]2CCCN(Cc3ccc(C)o3)[C@H]2C1` | -3.053 | 3.281 | 7.767 |
| 26 | `COc1ccccc1OC1CCN(C(=O)c2cnc(C)s2)CC1` | -0.6143 | 6.475 | -48.06 |
| 27 | `COCCCN1CC2(CCCCN2C(=O)C2CCCCC2)CC1=O` (centres unmarked) | - | 17.31 | 10.34 |
| 28 | `Cc1nc(CN2CCC(Oc3ccc(F)cc3C)(C(=O)O)CC2)co1` | 4.575 | 0.9196 | 3.509 |
| 29 | `Cc1cccc(C2CCCN(C(=O)CN3CCOC3=O)C2)c1` (centres unmarked) | 1.707 | 1.357 | 15 |
| 30 | `CCN1CCc2[nH]cnc2C12CCN(Cc1ccc3nsnc3c1)CC2` | -12.08 | -0.9375 | 19.54 |
| 31 | `O=C(c1cnn2c1OCCC2)N1CCC(Cc2ccccc2)CC1` | -0.1203 | 0.9885 | 20.22 |
| 32 | `CN(CC(N)=O)S(=O)(=O)c1ccc(F)cc1Cl` | 2.366 | 5.98 | 11.43 |
| 33 | `CC(C)(CN)NS(=O)(=O)c1cccc(F)c1F` | -4.194 | 5.815 | 11.84 |
| 34 | `Cc1[nH]c2ccc(CNc3cc(C(N)=O)ccn3)cc2c1C` | 11.47 | 5.882 | 11.48 |
| 35 | `CC1(C)CC(=O)c2cnc3nc(N4CCOCC4)nc(O)c3c2C1` | -9.198 | -0.6286 | 9.89 |
| 36 | `Fc1ccc(CN2CCCC3(CCN(Cc4ncc[nH]4)C3)C2)cc1F` (centres unmarked) | -32.06 | 0.5729 | 9.091 |
| 37 | `Cc1cc(NC2CC3(CCN(Cc4cscn4)C3)C2)ncn1` (centres unmarked) | -4.11 | 2.249 | 13.42 |
| 38 | `Cc1cc(C(=O)N(C)C2CCN(C)C2)c2ccc(F)cc2n1` (centres unmarked) | 1.277 | 2.983 | 18.18 |
| 39 | `COCC1c2nnn(CC3CC3)c2CCN1C(=O)c1cnccn1` (centres unmarked) | 13.55 | 1.673 | 22.37 |
| 40 | `O=c1cc(CN2CCCCC2c2cccc(F)c2)[nH]c2ncnn12` (centres unmarked) | 5.825 | 4.874 | 21.69 |
| 41 | `CN(Cc1nnc2ccccn12)C(=O)NC1CCCCC1` | - | 6.869 | 23.94 |
| 42 | `COC(CNC(=O)c1ccoc1)c1cccc(Cl)c1` (centres unmarked) | 0.3681 | 5.243 | 9.804 |
| 43 | `Cc1nc(CN2CCC3(CCN(c4ncc(F)cn4)C3)C2=O)cs1` (centres unmarked) | 1.648 | 6.11 | 18.45 |
| 44 | `CC(C)[C@@H]1CN(C(=O)CCc2ccc(F)cc2)C[C@H]1C(=O)O` | 4.294 | -1.617 | 9.804 |
| 45 | `CC(C)n1cnnc1Cn1c(=O)cnc2ccccc21` | -3.498 | 4.452 | 12.9 |
| 46 | `N#CCCCOc1cccc(CN2CCCC2c2ccc[nH]2)c1` (centres unmarked) | 2.801 | 4.629 | 16.13 |
| 47 | `CCC1=NC2(CCC(C(=O)Nc3ccc(F)cc3)CC2)C(=O)N1C` (centres unmarked) | 0.7317 | 1.832 | 18.87 |
| 48 | `CC1CCN(C(=O)[C@@H]2CC[C@@H]3[C@@H](CCN3c3ncc(F)cn3)O2)CC1` | -4.839 | 4.343 | 5.556 |
| 49 | `COc1ccc([C@@H]2CN(c3cc(OC)nc(N)n3)C[C@H]2N(C)C)cc1` | - | 4.522 | 24.17 |
| 50 | `CN1CCc2onc(Cn3cccc3)c2C1` | 4.277 | 1.985 | 13.16 |
| 51 | `O=C(Nc1cccnc1)Nc1ccn(CC(F)F)n1` | - | 1.206 | 18.31 |
| 52 | `CCC(O)CN1CCN(C(=O)c2csc(COC)n2)CC1` (centres unmarked) | -1.966 | 4.399 | 8.73 |
| 53 | `Fc1ccccc1CO[C@@H]1C[C@H]2CN(c3ncccn3)CCN2C1` | - | -0.4508 | -1.724 |
| 54 | `Cc1ncsc1C(=O)N1CCCCC1c1cc2nc(C)c(C)c(O)n2n1` (centres unmarked) | 2.331 | 0.9001 | 9.929 |
| 55 | `c1ccc(Cc2cccc(C3CCCN3C3CCOCC3)n2)cc1` (centres unmarked) | 4.993 | -1.451 | 37.68 |
| 56 | `Cc1nc(C)c(CC(=O)NCc2ccc(F)cc2F)s1` | 11.63 | 5.172 | 10.43 |

4 of the entries, repeated:

COc1ccccc1OC1CCN(C(=O)c2cnc(C)s2)CC1 gave CoaBC: -0.6143%; PfKRS1: 6.475%; LiHisRS: -48.06%.
COc1ccc([C@@H]2CN(c3cc(OC)nc(N)n3)C[C@H]2N(C)C)cc1 gave PfKRS1: 4.522%; LiHisRS: 24.17%.
CN1CCN(C[C@@H]2CN(C(=O)CCc3cn[nH]c3)C[C@@H]2CO)CC1 gave CoaBC: 6.79%; PfKRS1: 3.624%; LiHisRS: 0%.
CC1(c2ccccc2)CCCN(Cc2cncn2C2CCCC2)C1 (centres unmarked) gave PfKRS1: 8.858%; LiHisRS: 40%.

The values are deposited in ChEMBL (CHEMBL3988442, “University of Dundee, Small-Polar-MMV Screening Library” (2021)).